Results on 10 substances are retold here after publication PMC4634149.

These are yes or no findings as the source states them, for the method shown. For some of these results: Binding seen in cells or lysates may run through a third protein. For some of these results: Binding calls can cover weak binding; strength is not graded here. For some of these results: Where a sequence is shown, tags or fusion partners need not be part of it.

The first test deals with T1, GST-AIP1 (full-length GST::AIP1) (Arabidopsis thaliana) (UniProt Q8H0V4).
T1 sequence: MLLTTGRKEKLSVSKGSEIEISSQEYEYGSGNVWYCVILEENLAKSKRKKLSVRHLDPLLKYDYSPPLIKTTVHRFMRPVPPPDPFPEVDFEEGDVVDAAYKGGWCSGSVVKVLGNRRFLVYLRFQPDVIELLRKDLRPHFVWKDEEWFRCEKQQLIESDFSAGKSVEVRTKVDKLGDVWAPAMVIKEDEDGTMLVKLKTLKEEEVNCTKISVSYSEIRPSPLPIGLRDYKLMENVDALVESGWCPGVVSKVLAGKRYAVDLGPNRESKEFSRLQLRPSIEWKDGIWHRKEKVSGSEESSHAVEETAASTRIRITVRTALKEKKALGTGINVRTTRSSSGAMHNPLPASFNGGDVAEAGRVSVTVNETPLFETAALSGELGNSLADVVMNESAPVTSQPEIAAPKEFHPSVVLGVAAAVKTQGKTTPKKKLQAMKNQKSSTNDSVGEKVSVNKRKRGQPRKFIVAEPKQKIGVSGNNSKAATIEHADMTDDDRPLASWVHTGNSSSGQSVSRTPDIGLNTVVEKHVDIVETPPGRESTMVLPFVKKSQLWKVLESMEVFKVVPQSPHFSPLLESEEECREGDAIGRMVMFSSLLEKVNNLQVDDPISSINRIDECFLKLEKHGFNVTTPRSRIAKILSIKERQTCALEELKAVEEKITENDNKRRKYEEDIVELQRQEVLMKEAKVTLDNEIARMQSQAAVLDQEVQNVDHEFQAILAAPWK
The experiment in a line: pull-down; semi-in vivo pulldown: bacterially expressed recombinant GST-AIP1 with protein lysates of Arabidopsis 10-day-old plants; immunoblot with anti-ABAP1 or antibodies against histones; only the target purified. A general note: In western blotting, separated proteins are transferred to a membrane and probed.
In the case of “non-modified histone H1 (endogenous, Arabidopsis plantlets)”, the binding result was “binds”.
For the substance “non-modified histone H2B (endogenous, Arabidopsis plantlets)”, the binding entry was “binds”.

The next test deals with T2, C-terminal portion of AIP1 containing the DUF724 domain (Arabidopsis thaliana) (UniProt Q8H0V4).
T2 sequence: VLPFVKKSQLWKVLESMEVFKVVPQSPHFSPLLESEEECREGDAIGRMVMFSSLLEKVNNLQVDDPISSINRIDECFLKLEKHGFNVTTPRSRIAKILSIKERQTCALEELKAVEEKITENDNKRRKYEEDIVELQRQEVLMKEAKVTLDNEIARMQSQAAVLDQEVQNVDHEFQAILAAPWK
Briefly: two-hybrid; S. cerevisiae PJ694 co-transformed; selection on -leu/-trp/-his or -leu/-trp/-his/-ade, 3 days at 30 °C; C-terminal portion of AIP1 (DUF724) fused with GAL4 AD against GAL4 DBD fusions (Additional File 4); Additional File 10 calls the AIP1 portion the bait.
Take HDAC1: the binding result is reported as “no binding”.
As to CDC6, the binding entry is recorded as “no binding”.
The same measure, in the same setting: the value for DRB4 was “no binding”; that for DBB was “no binding”; that for PP2a was “no binding”.
Still for that read-out and setting: the value for HBO1 was “no binding”.
SNF2/RAD54: the binding result is “no binding”.
On to HDAC2, for which the binding result was “no binding”.
